Compound in the test: CC1Cc2ccccc2N1C(=O)C1CCCN(C1)C(=O)CCl (mixture of isomers) [TRIM25 ligand 11 (diastereomer mixture)]
Briefly: probe-labelled cysteine peptide fold change vs DMSO (competition) (log2 fold change); higher = less target engagement (more negative = stronger competition). The settings on record: THP-1, incubation time: 4 h.

Amino acid sequences for entries named in this document (tags omitted). A change or cut given only in a name is not applied to a line headed by its entry.
UniProt Q99704: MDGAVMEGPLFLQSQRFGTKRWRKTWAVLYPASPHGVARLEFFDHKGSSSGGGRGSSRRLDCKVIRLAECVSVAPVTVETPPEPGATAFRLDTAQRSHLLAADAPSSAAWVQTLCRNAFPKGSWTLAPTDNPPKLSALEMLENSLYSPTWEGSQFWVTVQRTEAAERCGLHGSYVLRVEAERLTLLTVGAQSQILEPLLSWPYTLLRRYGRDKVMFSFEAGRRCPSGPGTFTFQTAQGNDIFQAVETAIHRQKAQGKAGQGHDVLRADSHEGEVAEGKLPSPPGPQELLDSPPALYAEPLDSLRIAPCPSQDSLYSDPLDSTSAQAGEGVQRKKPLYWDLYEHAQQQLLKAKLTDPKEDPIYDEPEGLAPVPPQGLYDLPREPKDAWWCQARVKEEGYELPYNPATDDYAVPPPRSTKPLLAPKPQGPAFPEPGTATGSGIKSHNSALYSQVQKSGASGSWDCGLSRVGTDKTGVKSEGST
UniProt Q9P2X0: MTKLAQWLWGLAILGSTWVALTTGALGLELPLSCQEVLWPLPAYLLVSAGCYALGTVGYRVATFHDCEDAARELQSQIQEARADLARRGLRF
UniProt Q92608: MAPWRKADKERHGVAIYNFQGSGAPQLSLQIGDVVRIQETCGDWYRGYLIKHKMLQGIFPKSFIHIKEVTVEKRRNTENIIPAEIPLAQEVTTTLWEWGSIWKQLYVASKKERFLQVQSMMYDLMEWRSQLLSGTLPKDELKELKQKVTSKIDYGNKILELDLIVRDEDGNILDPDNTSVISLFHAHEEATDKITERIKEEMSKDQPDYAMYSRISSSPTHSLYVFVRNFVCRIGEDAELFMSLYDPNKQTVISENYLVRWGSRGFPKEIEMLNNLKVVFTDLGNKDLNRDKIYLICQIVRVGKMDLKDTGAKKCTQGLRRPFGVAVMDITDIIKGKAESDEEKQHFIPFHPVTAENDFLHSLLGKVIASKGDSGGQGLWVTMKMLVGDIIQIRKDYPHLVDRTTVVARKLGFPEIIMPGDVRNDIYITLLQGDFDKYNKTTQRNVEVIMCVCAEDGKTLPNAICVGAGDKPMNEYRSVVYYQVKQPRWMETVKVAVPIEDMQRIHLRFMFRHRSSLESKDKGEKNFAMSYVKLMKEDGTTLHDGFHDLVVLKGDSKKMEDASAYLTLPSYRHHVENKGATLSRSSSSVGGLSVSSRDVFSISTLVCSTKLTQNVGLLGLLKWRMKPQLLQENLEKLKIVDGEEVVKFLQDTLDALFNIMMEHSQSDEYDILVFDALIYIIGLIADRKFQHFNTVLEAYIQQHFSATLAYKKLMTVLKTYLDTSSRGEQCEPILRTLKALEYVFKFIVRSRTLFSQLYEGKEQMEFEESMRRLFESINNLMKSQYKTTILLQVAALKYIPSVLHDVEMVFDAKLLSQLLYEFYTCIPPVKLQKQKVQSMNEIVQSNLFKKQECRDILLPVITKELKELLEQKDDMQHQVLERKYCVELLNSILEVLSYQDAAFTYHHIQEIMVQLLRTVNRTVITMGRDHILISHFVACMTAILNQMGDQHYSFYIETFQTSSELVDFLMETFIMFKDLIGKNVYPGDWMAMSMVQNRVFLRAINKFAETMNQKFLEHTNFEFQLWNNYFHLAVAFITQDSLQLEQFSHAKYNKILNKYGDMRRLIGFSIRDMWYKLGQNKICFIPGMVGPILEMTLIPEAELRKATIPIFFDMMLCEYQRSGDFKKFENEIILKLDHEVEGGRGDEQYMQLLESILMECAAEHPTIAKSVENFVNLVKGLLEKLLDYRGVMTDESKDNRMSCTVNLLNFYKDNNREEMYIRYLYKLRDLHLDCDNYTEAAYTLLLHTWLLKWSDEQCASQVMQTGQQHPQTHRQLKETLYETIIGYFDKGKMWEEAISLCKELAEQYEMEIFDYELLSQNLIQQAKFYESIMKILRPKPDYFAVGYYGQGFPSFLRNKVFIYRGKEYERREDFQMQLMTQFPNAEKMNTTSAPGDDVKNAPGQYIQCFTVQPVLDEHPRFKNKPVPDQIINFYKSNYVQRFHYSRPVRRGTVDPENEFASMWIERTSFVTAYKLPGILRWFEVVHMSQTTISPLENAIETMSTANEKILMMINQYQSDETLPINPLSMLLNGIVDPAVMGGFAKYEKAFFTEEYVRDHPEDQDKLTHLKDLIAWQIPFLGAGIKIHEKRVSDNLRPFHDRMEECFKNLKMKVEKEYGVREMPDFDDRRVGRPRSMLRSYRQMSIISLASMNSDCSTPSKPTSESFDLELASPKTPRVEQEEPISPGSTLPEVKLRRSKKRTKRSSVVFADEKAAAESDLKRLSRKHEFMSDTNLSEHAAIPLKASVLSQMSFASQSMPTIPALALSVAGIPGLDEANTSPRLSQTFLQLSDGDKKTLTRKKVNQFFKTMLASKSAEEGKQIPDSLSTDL
UniProt Q9BTV6: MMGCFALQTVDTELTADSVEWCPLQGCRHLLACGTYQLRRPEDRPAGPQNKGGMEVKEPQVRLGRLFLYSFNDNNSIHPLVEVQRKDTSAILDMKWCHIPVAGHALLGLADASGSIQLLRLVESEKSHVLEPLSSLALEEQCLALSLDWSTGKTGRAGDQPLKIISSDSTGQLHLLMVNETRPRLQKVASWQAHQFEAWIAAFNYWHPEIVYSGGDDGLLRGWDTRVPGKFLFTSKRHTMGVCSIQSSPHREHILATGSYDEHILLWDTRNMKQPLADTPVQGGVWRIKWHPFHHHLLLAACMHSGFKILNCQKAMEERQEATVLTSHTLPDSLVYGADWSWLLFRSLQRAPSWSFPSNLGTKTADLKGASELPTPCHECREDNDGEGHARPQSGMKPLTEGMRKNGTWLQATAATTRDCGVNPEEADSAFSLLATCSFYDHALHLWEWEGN
UniProt Q5JPH6: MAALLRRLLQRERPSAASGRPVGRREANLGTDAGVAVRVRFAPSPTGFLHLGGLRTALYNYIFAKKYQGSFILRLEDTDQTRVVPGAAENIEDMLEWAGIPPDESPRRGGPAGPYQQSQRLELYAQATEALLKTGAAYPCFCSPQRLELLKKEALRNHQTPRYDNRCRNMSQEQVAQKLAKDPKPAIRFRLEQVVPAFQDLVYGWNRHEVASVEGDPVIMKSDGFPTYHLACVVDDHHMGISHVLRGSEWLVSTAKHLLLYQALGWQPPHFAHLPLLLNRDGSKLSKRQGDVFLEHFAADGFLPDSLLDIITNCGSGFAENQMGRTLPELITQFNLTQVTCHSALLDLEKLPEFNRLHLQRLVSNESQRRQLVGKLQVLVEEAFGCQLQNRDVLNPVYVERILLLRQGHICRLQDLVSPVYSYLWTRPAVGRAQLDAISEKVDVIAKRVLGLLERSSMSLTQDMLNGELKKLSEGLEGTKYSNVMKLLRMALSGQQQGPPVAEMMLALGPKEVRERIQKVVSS
UniProt Q7L591: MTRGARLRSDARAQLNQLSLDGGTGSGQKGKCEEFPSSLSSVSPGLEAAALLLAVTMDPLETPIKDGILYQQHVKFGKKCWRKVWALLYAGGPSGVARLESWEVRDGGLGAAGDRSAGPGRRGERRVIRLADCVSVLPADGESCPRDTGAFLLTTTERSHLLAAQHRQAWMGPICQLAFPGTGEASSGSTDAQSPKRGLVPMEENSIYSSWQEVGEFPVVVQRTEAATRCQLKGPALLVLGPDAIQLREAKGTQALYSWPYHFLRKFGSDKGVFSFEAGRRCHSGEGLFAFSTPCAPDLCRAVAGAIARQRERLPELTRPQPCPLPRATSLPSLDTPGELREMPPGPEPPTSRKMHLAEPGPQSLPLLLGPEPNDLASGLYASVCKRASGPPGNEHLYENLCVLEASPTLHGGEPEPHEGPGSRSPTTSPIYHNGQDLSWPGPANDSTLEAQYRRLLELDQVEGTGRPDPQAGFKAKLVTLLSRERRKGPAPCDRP
UniProt Q9BVC3, whole entry: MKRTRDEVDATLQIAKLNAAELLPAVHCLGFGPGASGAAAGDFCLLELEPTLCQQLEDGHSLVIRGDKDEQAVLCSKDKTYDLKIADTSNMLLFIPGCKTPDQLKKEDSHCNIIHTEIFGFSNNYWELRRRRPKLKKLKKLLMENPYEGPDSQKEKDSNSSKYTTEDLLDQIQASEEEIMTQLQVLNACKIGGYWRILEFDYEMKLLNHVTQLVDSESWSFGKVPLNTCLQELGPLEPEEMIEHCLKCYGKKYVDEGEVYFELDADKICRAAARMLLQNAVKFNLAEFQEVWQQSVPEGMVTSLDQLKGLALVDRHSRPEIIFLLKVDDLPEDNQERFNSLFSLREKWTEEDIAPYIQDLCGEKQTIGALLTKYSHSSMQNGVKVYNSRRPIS
UniProt Q9UNI6, whole entry, looked up: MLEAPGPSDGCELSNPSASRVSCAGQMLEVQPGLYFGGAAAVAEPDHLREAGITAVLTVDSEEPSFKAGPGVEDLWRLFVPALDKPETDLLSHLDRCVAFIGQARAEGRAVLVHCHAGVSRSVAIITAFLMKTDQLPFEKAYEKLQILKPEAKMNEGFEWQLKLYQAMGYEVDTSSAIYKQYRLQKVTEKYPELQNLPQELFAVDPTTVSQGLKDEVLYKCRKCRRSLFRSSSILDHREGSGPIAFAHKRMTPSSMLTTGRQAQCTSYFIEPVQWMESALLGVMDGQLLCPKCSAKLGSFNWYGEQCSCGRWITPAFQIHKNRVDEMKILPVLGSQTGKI
UniProt P26358: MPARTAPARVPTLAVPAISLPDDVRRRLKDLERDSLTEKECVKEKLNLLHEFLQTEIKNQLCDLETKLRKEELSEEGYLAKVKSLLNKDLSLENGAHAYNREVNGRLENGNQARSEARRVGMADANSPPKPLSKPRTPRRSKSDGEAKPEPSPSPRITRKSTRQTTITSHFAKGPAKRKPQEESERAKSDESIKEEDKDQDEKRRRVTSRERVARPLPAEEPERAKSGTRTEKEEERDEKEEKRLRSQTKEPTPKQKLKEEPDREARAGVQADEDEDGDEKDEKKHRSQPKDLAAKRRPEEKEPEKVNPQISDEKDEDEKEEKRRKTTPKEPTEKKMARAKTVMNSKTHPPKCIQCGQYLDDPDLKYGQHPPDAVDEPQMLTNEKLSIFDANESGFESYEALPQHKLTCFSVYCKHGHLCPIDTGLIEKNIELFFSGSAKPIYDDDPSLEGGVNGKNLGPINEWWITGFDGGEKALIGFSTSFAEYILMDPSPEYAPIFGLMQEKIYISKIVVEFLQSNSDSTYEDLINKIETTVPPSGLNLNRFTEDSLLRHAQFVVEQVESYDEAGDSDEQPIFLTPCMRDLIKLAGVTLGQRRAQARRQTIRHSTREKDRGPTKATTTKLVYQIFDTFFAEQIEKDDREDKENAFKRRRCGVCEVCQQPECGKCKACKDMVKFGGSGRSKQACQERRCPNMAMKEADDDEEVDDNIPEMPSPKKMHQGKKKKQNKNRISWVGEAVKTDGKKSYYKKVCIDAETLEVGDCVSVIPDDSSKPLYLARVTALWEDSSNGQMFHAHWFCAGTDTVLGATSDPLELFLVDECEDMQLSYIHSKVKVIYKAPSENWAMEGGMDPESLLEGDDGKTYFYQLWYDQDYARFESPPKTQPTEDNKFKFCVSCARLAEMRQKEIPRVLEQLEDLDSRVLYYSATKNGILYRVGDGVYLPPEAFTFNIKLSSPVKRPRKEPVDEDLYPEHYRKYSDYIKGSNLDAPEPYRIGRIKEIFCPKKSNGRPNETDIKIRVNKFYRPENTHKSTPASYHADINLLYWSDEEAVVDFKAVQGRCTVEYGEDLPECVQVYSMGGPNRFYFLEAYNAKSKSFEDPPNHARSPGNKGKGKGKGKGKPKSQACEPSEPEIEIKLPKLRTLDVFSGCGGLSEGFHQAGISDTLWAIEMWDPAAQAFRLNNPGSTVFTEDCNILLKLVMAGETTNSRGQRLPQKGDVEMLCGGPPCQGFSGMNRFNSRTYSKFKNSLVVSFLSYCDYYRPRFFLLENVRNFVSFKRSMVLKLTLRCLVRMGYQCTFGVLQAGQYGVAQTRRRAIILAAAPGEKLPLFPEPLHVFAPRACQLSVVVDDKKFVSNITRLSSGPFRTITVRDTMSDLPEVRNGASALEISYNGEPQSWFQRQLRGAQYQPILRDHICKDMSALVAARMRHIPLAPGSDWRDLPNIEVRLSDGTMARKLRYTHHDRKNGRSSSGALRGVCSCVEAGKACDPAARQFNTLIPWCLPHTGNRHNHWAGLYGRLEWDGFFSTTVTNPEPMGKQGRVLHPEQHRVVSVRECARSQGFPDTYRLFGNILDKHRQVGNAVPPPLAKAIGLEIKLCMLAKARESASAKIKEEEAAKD

The other results are listed elsewhere or left out.
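Also: competitive chemoproteomic profiling in live THP-1 cells with an iodoacetamide desthiobiotin (IA-DTB) probe, comparing probe-labelled peptide intensities in compound-treated cells against DMSO-treated controls.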

As for “DOK1_Q99704_224_RCPSGPGTFTFQTAQGNDIFQAVETAIHR (UniProt Q99704)”, the “probe-labelled cysteine peptide fold change” value reads like this: (10 µM) -0.243; (50 µM) -0.147.
As to “DPM3_Q9P2X0_67_VATFHDCEDAAR (UniProt Q9P2X0)”, the “probe-labelled cysteine peptide fold change” value is 0.149 (10 µM) and 0.131 (50 µM).
As to “DOCK2_Q92608_607_DVFSISTLVCSTK (UniProt Q92608)”, the “probe-labelled cysteine peptide fold change” value was 0.0442 (10 µM) and 0.0173 (50 µM).
As for “DPH7_Q9BTV6_377_GASELPTPCHECR (UniProt Q9BTV6)”, the “probe-labelled cysteine peptide fold change” value (10 µM) turned out to be 0.0731 and the “probe-labelled cysteine peptide fold change” value (50 µM) was found to be 0.019.
As for “EARS2_Q5JPH6_386_LQVLVEEAFGCQLQNR (UniProt Q5JPH6)”, the “probe-labelled cysteine peptide fold change” value (10 µM) stood at 0.127 and the “probe-labelled cysteine peptide fold change” value (50 µM) was -0.00715.
As to “DOK3_Q7L591_493_KGPAPCDRP (UniProt Q7L591)”, the “probe-labelled cysteine peptide fold change” value reads like this: (10 µM) -0.0118; (50 µM) 0.0304.
In the same order, the values of “DSCC1_Q9BVC3_111_KEDSHCNIIHTEIFGFSNNYWELR (UniProt Q9BVC3)” are 0.0847 and -0.0429.
For “DTX3L_Q8TDB6_577_CKHEFCAPCINK (UniProt Q8TDB6)”, the “probe-labelled cysteine peptide fold change” value was -0.0902 (10 µM) and -0.26 (50 µM).
For the target “DOK3_Q7L591_282+295_CHSGEGLFAFSTPCAPDLCR (UniProt Q7L591)”, the “probe-labelled cysteine peptide fold change” value (10 µM) stood at 0.251 and the “probe-labelled cysteine peptide fold change” value (50 µM) was -0.532.
For “DPYSL2_Q16555_179_DRFQLTDCQIYEVLSVIR (UniProt Q16555)”, the “probe-labelled cysteine peptide fold change” value reads like this: (10 µM) 0.232; (50 µM) 0.128.
As to “DUSP12_Q9UNI6_23_VSCAGQMLEVQPGLYFGGAAAVAEPDHLR (UniProt Q9UNI6)”, the “probe-labelled cysteine peptide fold change” value was -0.0877 (10 µM) and -0.342 (50 µM).
“DSCR3_O14972_187_GHLNSTNCVITQPLTGELVVESSEAAIR (UniProt O14972)”: the “probe-labelled cysteine peptide fold change” value by setting is: (10 µM) 0.169; (50 µM) -0.0104.
On to “DNMT1_P26358_1125_SQACEPSEPEIEIK (UniProt P26358)”, for which the “probe-labelled cysteine peptide fold change” value is, setting by setting: (10 µM) -0.098; (50 µM) -0.305.
In the same order, the values of “DYNC1H1_Q14204_633_VQYPQSQACK (UniProt Q14204)” are 0.161 and 0.153.
